# These are yes or no findings as the source states them, for the method shown. Some binding calls cover weakened binding; strength is not graded here. Sequences can lack the tags named with a protein.
# Chains of the proteins cited; added tags and fusions are not shown. Residues count along the entry.
# UniProt Q6UVK1, residues 30-2322: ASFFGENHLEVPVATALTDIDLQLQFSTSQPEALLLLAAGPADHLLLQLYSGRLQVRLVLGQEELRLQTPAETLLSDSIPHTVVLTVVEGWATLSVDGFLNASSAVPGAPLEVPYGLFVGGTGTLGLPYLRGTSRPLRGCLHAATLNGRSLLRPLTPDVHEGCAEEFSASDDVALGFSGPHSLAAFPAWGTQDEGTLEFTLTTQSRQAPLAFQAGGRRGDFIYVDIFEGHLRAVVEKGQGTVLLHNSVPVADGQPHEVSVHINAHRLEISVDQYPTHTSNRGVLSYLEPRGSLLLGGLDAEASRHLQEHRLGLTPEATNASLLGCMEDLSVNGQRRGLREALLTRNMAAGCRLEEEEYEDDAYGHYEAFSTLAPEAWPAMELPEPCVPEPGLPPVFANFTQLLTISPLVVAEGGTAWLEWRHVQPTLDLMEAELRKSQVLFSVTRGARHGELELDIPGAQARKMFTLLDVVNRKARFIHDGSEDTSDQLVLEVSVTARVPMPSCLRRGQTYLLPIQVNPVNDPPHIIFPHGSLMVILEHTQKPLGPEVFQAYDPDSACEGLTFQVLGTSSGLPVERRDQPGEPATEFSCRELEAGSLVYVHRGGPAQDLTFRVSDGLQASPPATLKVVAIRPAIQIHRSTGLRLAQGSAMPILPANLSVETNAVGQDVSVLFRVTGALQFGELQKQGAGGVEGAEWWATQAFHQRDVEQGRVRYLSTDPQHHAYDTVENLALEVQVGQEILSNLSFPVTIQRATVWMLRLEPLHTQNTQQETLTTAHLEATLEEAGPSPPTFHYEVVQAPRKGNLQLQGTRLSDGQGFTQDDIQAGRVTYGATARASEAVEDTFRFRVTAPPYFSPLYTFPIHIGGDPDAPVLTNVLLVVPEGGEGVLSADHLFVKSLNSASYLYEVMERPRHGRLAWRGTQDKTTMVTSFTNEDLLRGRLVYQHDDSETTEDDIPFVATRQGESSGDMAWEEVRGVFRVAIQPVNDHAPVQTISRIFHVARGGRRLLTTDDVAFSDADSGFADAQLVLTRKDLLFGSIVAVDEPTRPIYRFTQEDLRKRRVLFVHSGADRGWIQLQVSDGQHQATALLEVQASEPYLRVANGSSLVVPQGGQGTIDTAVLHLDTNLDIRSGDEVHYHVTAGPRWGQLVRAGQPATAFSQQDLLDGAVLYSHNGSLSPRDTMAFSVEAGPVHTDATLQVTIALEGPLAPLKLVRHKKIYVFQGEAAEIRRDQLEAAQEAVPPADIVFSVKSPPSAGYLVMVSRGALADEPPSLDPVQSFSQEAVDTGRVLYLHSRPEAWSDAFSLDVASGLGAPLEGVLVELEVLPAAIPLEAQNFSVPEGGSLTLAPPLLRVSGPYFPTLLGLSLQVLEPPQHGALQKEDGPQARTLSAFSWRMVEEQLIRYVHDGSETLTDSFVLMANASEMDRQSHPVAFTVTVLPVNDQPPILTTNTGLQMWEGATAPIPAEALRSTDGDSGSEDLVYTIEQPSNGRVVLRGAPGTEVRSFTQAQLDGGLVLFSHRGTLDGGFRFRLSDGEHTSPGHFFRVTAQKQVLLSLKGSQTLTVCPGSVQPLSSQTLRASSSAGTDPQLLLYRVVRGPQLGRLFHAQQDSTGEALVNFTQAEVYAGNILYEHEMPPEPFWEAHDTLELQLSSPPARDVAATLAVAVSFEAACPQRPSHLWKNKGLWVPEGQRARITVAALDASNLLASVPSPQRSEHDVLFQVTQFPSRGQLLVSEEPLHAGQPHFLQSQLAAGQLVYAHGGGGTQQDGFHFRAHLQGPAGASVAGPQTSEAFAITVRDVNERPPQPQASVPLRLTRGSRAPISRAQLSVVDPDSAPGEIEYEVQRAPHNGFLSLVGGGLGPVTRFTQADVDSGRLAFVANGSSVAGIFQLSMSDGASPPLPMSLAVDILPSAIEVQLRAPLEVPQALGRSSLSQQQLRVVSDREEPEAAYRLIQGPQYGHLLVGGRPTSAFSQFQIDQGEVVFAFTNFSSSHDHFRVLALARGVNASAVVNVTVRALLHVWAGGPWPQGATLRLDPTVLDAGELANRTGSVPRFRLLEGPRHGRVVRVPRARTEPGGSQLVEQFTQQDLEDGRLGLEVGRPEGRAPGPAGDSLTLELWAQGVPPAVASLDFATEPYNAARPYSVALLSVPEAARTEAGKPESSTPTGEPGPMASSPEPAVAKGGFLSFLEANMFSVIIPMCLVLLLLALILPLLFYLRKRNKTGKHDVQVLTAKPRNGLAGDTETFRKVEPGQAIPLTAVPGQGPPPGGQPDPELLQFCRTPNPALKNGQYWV
# How the values were obtained:
# [1] = biological target: HMW-MAA (high molecular weight-melanoma associated antigen) on A375 cells (UniProt Q6UVK1); test: flow cytometry on A375 cells, FITC anti-human IgG or IgE secondary antibody
# [2] = biological target: HMW-MAA (high molecular weight-melanoma associated antigen) on A375 cells (UniProt Q6UVK1); test: flow cytometry on A375 cells (express HMW-MAA/CSPG4), FITC goat anti-human IgE secondary antibody, median fluorescence
binder,measurement,setting,value
huCH IgE 3-His (anti-HMW-MAA IgE 3His) (antibody) heavy: EVQLVQSGGGLVQPGGSLKLSCAVSGFTFSNYWMNWVRQAPGKGLEWVGEIRLKSNNFGRYYAESVKGRFTISRDDSKNTAYLQMNSLKTEDTAVYYCTSYGNYVGHYFDHWGQGTLVTVSSASTQSPSVFPLTRCCKNIPSNATSVTLGCLATGYFPEPVMVTWDTGSLNGTTMTLPATTLTLSGHYATISLLTVSGAWAKQMFTCRVAHTPSSTDWVDNKTFSVCSRDFTPPTVKILQSSCDGGGHFPPTIQLLCLVSGYTPGTINITWLEDGQVMDVDLSTASTTQEGELASTQSELTLSQKHWLSDRTYTCQVTYQGHTFEDSTKKCADSNPRGVSAYLSRPSPFDLFIRKSPTITCLVVDLAPSKGTVNLTWSRASGKPVNHSTRKEEKQRNGTLTVTSTLPVGHRDWIEGETYQCRVTHPHLPRALMRSTTKTSGPRAAPEVYAFATPEWPGSRDKRTLACLIQNFMPEDISVQWLHNEVQLPDARHSTTQPRKTKGSGFFVFSRLEVTRAEWEQKDEFICRAVHEAAHPSHTVQRAVSVNPGK light: DIQLTQSPSFLSASVGDRVTITCKASQNVDTNVAWYQQKPGKAPKPLLFSASYRYTGVPSRFSGSGSGTDFTLTISSLQPEDFATYFCQQYNSYPLTFGGGTKVEIKGTVAAPSVFIFPPSDEQLKSGTASVVCLLNNFYPREAKVQWKVDNALQSGNSQESVTEQDSKDSTYSLSSTLTLSKADYEKHKVYACEVTHQGLSSPVTKSFNRGEC,binding,[1],binds
same,binding,[2],binds

# Source: patent US20220380482A1
